B1: P01675 (protein, UniProt P01675 1-107, looked up)
chain: EIVLTQSPAITAASLGQKVTITCSASSSVSYMHWYQQKSGTSPKPWIYEISKLASGVPARFSGSGSGTSYSLTISSMEAEDAAIYYCQQWNYPLWTFGGGTKLEIKR
modifications: full-length
B2: Q99LF4 (protein, UniProt Q99LF4 1-505, looked up)
chain: MSRNYNDELQFLDKINKNCWRIKKGFVPNMQVEGVFYVNDALEKLMFEELRNACRGGGVGGFLPAMKQIGNVAALPGIVHRSIGLPDVHSGYGFAIGNMAAFDMNDPEAVVSPGGVGFDINCGVRLLRTNLDESDVQPVKEQLAQAMFDHIPVGVGSKGVIPMNAKDLEEALEMGVDWSLREGYAWAEDKEHCEEYGRMLQADPNKVSPRAKKRGLPQLGTLGAGNHYAEIQVVDEIFNEYAAKKMGIDHKGQVCVMIHSGSRGLGHQVATDALVAMEKAMKRDKIIVNDRQLACARIASPEGQDYLKGMAAAGNYAWVNRSSMTFLTRQAFAKVFNTTPDDLDLHVIYDVSHNIAKVEQHVVDGKERTLLVHRKGSTRAFPPHHPLIAVDYQLTGQPVLIGGTMGTCSYVLTGTEQGMTETFGTTCHGAGRALSRAKSRRNLDFQDVLDKLADMGIAIRVASPKLVMEEAPESYKNVTDVVNTCHDAGISKKAIKLRPIAVIKG
modifications: full-length
B3: Q8BGQ7 (protein, UniProt Q8BGQ7 1-968, looked up)
chain: MDATLTAREIRERFINFFRRNEHTYVHSSATIPLDDPTLLFANAGMNQFKPIFLNTIDPSHPMAKLSRAANTQKCIRAGGKHNDLDDVGKDVYHHTFFEMLGSWSFGDYFKELACKMALELLTQEFGIPVERLYVTYFGGDEAAGLEPDLECRQIWQNLGLDEARILPGNMKDNFWEMGDTGPCGPCSEIHYDRIGGRDAAHLVNQDDPNVLEIWNLVFIQYNRESDGVLKPLPKKSIDTGMGLERLVSVLQNKMSNYDTDLFMPYFEAIQKGTGARPYTGKVGAEDADGIDMAYRVLADHARTITVALADGGRPDNTGRGYVLRRILRRAVRYSHEKLNASRGFFATLVDVVVQSLGDAFPELKKDPEMVKDIINEEEVQFLKTLSRGRRILDRKIQSLGDCKTIPGDTAWLLYDTYGFPVDLTGLIAEEKGLVVDMNGFEEERRLAQLKSQGKGAGDEDLIMLDIYAIEELRAKGLEATDDSPKYNYQSDSSGSYVFECTVATVLALRREKMFVDEVVTGQECGVVLDKTCFYAEQGGQIYDEGYLVKVDDSSEDKTEFTVKNAQVRGGYVLHIGTIYGNLKVGDQVRLFIDEPRRRPVMSNHTATHILNFALRSVLGEADQKGSLVAPDRLRFDFTAKGAMSTQQIKKAEEIVNGMIEAAKPVYTQDCPLAAAKAIQGLRAVFDETYPDPVRVVSIGVPVSELLDDPCGPAGSLTSVEFCGGTHLRNSSHAGAFVIVTEEAIAKGIRRIVAVTGAEAQKALRKSETLKKSLSAMEAKVKAQTAPNKDVQREIADLGEALATAVIPQWQKDEQRETLKSLKKVMDDLDRASKADVQKRVLEKTKQLIDSNPNQPLVILEMESGASAKALNEALKLFKTHSPQTSAMLFTVDNEAGKITCLCQVPQNAANRGLKASEWVQQVSGLMDGKGGGKDMSAQATGKNVGCLQEALQLATSFAQLRLGDVKN
modifications: full-length
B4: P01806 (protein, UniProt P01806 1-116, looked up)
chain: MDFGLIFFIVALLKGVQCEVKLLESGGGLVQPGGSLKLSCAASGFDFSRYWMSWVRQAPGKGLEWIGEINPDSSTINYTPSLKDKFIISRDNAKNTLYLQMSKVRSEDTALYYCAR
modifications: full-length
B5: P18524 (protein, UniProt P18524 1-117, looked up)
chain: MNFGLRLIFLVLVLKGVLCDVKLVESGGGLVKLGGSLKLSCAASGFTFSSYYMSWVRQTPEKRLELVAAINSNGGSTYYPDTVKGRFTISRDNAKNTLYLQMSSLKSEDTALYYCAR
modifications: full-length
B6: Q91VC3 (protein, UniProt Q91VC3 1-411, looked up)
chain: MAANATMATSGSARKRLLKEEDMTKVEFETSEEVDVTPTFDTMGLREDLLRGIYAYGFEKPSAIQQRAIKQIIKGRDVIAQSQSGTGKTATFSVSVLQCLDIQVRETQALILAPTRELAVQIQKGLLALGDYMNVQCHACIGGTNVGEDIRKLDYGQHVVAGTPGRVFDMIRRRSLRTRAIKMLVLDEADEMLNKGFKEQIYDVYRYLPPATQVVLISATLPHEILEMTNKFMTDPIRILVKRDELTLEGIKQFFVAVEREEWKFDTLCDLYDTLTITQAVIFCNTKRKVDWLTEKMREANFTVSSMHGDMPQKERESIMKEFRSGASRVLISTDVWARGLDVPQVSLIINYDLPNNRELYIHRIGRSGRYGRKGVAINFVKNDDIRILRDIEQYYSTQIDEMPMNVADLI
modifications: full-length
B7: Q8VDM4 (protein, UniProt Q8VDM4 1-908, looked up)
chain: MEEGGRDKTPVQSQQPSATTPSGADEKSSGKERRDAGEKDKEQELSEEDKQLQDELEMLVERLGEKDTSLYRPALEELRRQIRSSTTSMTSVPKPLKFLRPHYGKLKEIYENMAPGENKCFAADIISVLAMTMSGERECLKYRLVGSQEELASWGHEYVRHLAGEVAKEWQELDDAEKAQREPLLTLVKEIVPYNMAHNAEHEACDLLMEIEQVDMLEKDIDENAYAKVCLYLTSCVNYVPEPENSALLRCALGVFRKFSRFPEALRLALMLNDMELVEDIFTSCKDVVVQKQMAFMLGRHGVFLELSEDVEEYEDLTEIMSNVQLNSNFLALARELDIMEPKVPDDIYKTHLENNRFGGSGSQVDSARMNLASSFVNGFVNAAFGQDKLLTDDGNKWLYKNKDHGMLSAAASLGMILLWDVDGGLTQIDKYLYSSEDYIKSGALLACGIVNSGVRNECDPALALLSDYVLHNSNTMRLGSIFGLGLAYAGSNREDVLTLLLPVMGDSKSSMEVAGVTALACGMIAVGSCNGDVTSTILQTIMEKSETELKDTYARWLPLGLGLNHLGKGEAIEAILAALEVVSEPFRSFANTLVDVCAYAGSGNVLKVQQLLHICSEHFDSKEKEEDKDKKEKKDKDKKEAPADMGAHQGVAVLGIALIAMGEEIGAEMALRTFGHLLRYGEPTLRRAVPLALALISVSNPRLNILDTLSKFSHDADPEVSYNSIFAMGMVGSGTNNARLAAMLRQLAQYHAKDPNNLFMVRLAQGLTHLGKGTLTLCPYHSDRQLMSQVAVAGLLTVLVSFLDVRNIILGKSHYVLYGLVAAMQPRMLVTFDEELRPLPVSVRVGQAVDVVGQAGKPKTITGFQTHTTPVLLAHGERAELATEEFLPVTPILEGFVILRKNPNYDL
modifications: full-length
B8: P11679 (protein, UniProt P11679 1-490, looked up)
chain: MSIRVTQKSYKMSTSGPRAFSSRSFTSGPGARISSSSFSRVGSSSSSFRGSMGTGVGLGGFGGAGVGGITAVTVNQSLLSPLKLEVDPNIQAVRTQEKEQIKSLNNKFASFIDKVRFLEQQNKMLETKWSLLQQQKTSRSNMDNMFESYINNLRRQLEALGQEKLKLEAELGNMQGLVEDFKNKYEDEINKRTEMENEFVLIKKDVDEAYMNKVELESRLEGLTDEINFLRQIHEEEIRELQSQISDTSVVLSMDNSRSLDMDGIIAEVRAQYEDIANRSRAEAETMYQIKYEELQTLAGKHGDDLRRTKTEISEMNRNINRLQAEIEALKGQRASLEAAIADAEQRGEMAIKDAQTKLAELEAALQRAKQDMARQLREYQELMNVKLALDIEITTYRKLLEGEESRLESGMQNMSIHTKTTSGYSGGLSSSYGGLTSPGFSYGMSSFQPGFGSAGGSNTFSRTTKAVVVKKIETRDGKLVSESSDVVSK
modifications: full-length
B9: P04104 (protein, UniProt P04104 1-637, looked up)
chain: MSLQCSSRSLCRGGGGSRNFSSGSAGLVSFQRRSTSSSMRRSGGGGGGRFSGGGFCGSSGSGFGSKSLMNLGGGRSISKSVAGGGGSFCGGFGGGSYGGGGFGGGSYGGGGFGGGSFGGGGFGGSGFGGGLGGGGGFGSGGGFGGGRFGSMGPVCPPGGIQEVTINQSLLQPLNVEVDPQIQKVKSQEREQIKSLNDKFASFIDKVRFLEQQNQVLQTKWELLQQVDTTTRTQNLDPFFENYISILRRKVDSLKSDQSRMDSELKNMQDLVEEYRTKYEDEINKRTNAENEFVTIKKDVDSAYMTKVELQAKADALQQDIDFFSALYQMEMSQMQTQISETNVVLSMDNNRSLDLDGIISEVKAQYDSICQRSKAEAETFYQSKYEELQITAGKHGDSVRNTKMEISELNRMIQRLRSEIDGCKKQISQIQQNINDAEQRGEKALKDAQNKLNEIEDALSQCKEDLARLLRDFQELMNTKLALDMEIATYKKLLEGEEIRMSGECTPNVSVSVSTSHTSMSGSSSRGGGSGGGRYGGGGSYGGGSGGGSYGGSSGGGGSGGSYGGGSGGGSYGGGSGGGSSGSHRGGSGGGGGSSGGSYGGSSGGGRGGSSSGGGGVKSSGSSTVKFVSTSYSRGTK
modifications: full-length

Each molecule was assayed on CA19-9 modified proteins (assay: CA19-9 IP/MS (iTRAQ) of organoid conditioned media after Dox treatment). Conditions: A217 (genetic negative) organoids conditioned media, after 8 hours of treatment, CA19-9 IP with 5B1; relative to 17 0H NS19.
Parameters: species or system mouse

Point of comparison: B1, “17 8H 5B1” value 1.759. Against it:
- B2 — lower, 1.032
- B3 — higher, 2.891
- B4 — lower, 0.663
- B5 — lower, 1.188
- B6 — higher, 1.984
- B7 — lower, 1.196

Same assay, conditions: A217 (genetic negative) organoids conditioned media, after 8 hours of treatment, CA19-9 IP with NS19-9; relative to 17 0H NS19

Point of comparison: B1, “17 8H NS19” value 0.863. Against it:
- B2 — lower, 0.711
- B3 — lower, 0.555
- B4 — higher, 0.897
- B5 — higher, 1.131
- B6 — lower, 0.595
- B7 — lower, 0.322

Same assay, conditions: A217 (genetic negative) organoids conditioned media, before treatment (0H), CA19-9 IP with NS19-9; relative abundance, reference channel

Point of comparison: B4, “17 0H NS19” value 1. Against it:
- B1 — the same, 1
- B2 — the same, 1
- B5 — the same, 1
- B6 — the same, 1
- B7 — the same, 1

Same assay, conditions: A220 (C;R^LSL;F) organoids conditioned media, before treatment (0H), CA19-9 IP with 5B1; relative to 17 0H NS19

Point of comparison: B1, “20 0H 5B1” value 1.768. Against it:
- B2 — lower, 0.765
- B3 — higher, 2.559
- B4 — lower, 0.639
- B5 — lower, 1.014
- B6 — higher, 2.076
- B7 — lower, 0.932

Same assay, conditions: CA19-9 IP/MS relative abundance; A217 (genetic negative) organoid conditioned media, 0H (before treatment), IP with NS19-9; reference channel = 1

Point of comparison: B9, “17 0H NS19” value 1. Against it:
- B8 — the same, 1

Same assay, conditions: CA19-9 IP/MS relative abundance; A217 (genetic negative) organoid conditioned media, after 8 hours, IP with 5B1

Point of comparison: B9, “17 8H 5B1” value 0.711. Against it:
- B8 — higher, 3.472

Same assay, conditions: CA19-9 IP/MS relative abundance; A217 (genetic negative) organoid conditioned media, after 8 hours, IP with NS19-9

Point of comparison: B8, “17 8H NS19” value 1.075. Against it:
- B9 — higher, 1.547

Same assay, conditions: CA19-9 IP/MS relative abundance; A220 (C;R^LSL;F) organoid conditioned media, 0H (before treatment), IP with 5B1

Point of comparison: B8, “20 0H 5B1” value 2.793. Against it:
- B9 — lower, 1.083
